Test results taken from patent US20050204416A1, “Plant cells having receptor polypeptides” (priority 2004, published 2005).
For at least one compound, name, drawing or mass did not settle the structure.

Molecular target: T1, RXRα/VP16THRβ heterodimer (Homo sapiens, UniProt P10828)
T1 construct: expressed in transfected cells; host or cells: leaf disks transiently transformed by Agrobacterium with Bin4-35S::RXRα-35S::VP16THRβ-3RXRE::Luc #12: tobacco (A3); Atropa belladonna, Digitalis purpurea, Oryza sativa, Plantago lanceolata, Salvia coccinea, Withania somniferum (A4)
Assay: Tobacco leaf disks transiently transformed with RXRα/VP16THRβ construct, RXRE::Luc reporter expression
Type: cell-based
Details: ligand 5 uM, 1-2 days; luciferase luminescence, CCD imaging

Row | SMILES | Reporter expression in tobacco leaf disks
1 | C[C@]12CC[C@@H]3c4ccc(O)cc4CC[C@H]3[C@@H]1CC[C@@H]2O [Estradiol, estradiol] | −
2 | CC1(COc2ccc(CC3SC(=O)NC3=O)cc2)CCCCC1 (centres unmarked) [Ciglitazone] | −
